# Some of the results follow.
# Protein sequences, listed by entry. Tags and fused reporters are not part of them.
# UniProt Q0JBA9, entry or part of it: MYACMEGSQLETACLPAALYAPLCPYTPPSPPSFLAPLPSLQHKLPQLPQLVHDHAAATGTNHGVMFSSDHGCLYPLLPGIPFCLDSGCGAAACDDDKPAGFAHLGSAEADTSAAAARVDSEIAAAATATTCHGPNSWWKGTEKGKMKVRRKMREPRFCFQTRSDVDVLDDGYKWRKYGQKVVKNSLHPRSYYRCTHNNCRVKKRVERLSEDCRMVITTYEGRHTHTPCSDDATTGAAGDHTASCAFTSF
# Target: OsWRKY34 (Oryza sativa, UniProt Q0JBA9 1-250)
# Experiment: protein-binding microarray (RPBM); PBS, 2% BSA, 51.3 ng/ul salmon testes DNA, 50 uM zinc acetate, 200 nM TF, 25 C, 1 h; high values mean tight binding
# Conditions: protein: recombinant; tags: N-terminal polyhistidine and DsRed monomer fusion (pET32a); label: CyDye5-dUTP incorporated in the synthesized complementary strand; 3' TTTTT single-stranded linker to array surface; dsDNA, one strand shown
# In short: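 Transcription factors were each fused at the N-terminus to a polyhistidine tag plus DsRed and expressed in E. coli BL21-CodonPlus before Ni–NTA purification. Binding to a double-stranded custom Agilent array was carried out with 200 nM protein at 25 °C for 1 h in PBS, 2% BSA, salmon testes DNA and 50 µM zinc acetate. The binding signal is per-feature fluorescence intensity, in arbitrary units, on an Axon 4000B scanner.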
row,Sequence,binding signal
1,GCTCATGATCTCAATCCTCGTCTGTTTTTTCTCACGAAATCGGAGTCACCTAGTGCAG,10700 fluorescence intensity (a.u.)
2,ATGATGTCGGGCTCCACCCGTGGGTCTGCTACTGCCGCTCCGGAGTCACCTAGTGCAG,8450 fluorescence intensity (a.u.)
3,TGATTATGCCATCCATTTTTCTAGAGGTCATTGAATTTACCGGAGTCACCTAGTGCAG,10100 fluorescence intensity (a.u.)
4,CTCCTCCGCGTAGCATCGCTGTTGAATCGTTATCCTTTCTCGGAGTCACCTAGTGCAG,9320 fluorescence intensity (a.u.)
5,TACTTTCTTTTATGAATATGTTTCTTTCAATATGGCATTACGGAGTCACCTAGTGCAG,8570 fluorescence intensity (a.u.)
6,CCGAGAGATTTTGATTTGTTGCTGTAGATTGATTGTGTGACGGAGTCACCTAGTGCAG,9780 fluorescence intensity (a.u.)
7,CGTTTTCATCCTTATCTATATCAATATTTTTTTTGTCTTACGGAGTCACCTAGTGCAG,9730 fluorescence intensity (a.u.)
8,GCCTACATGACAGCGACTCGCCGCCTTCACTGATTCGTGACGGAGTCACCTAGTGCAG,8300 fluorescence intensity (a.u.)
9,CCGGCGGGTGAGAAAAGTTTCGGGCGGGGTCAGCGACGGTCGGAGTCACCTAGTGCAG,8980 fluorescence intensity (a.u.)
10,TTTGTCGAAATATAATCATGTGTGGCCTTGTTGTAAAGATCGGAGTCACCTAGTGCAG,8140 fluorescence intensity (a.u.)
11,CTTTCTTATTGCAACTCCAGACGATTGGCTGTGGTCCCTCCGGAGTCACCTAGTGCAG,8070 fluorescence intensity (a.u.)
12,GTGGTTGGTTGGTGCGGTTGCGGCGGGTGATCGAACGATGCGGAGTCACCTAGTGCAG,12100 fluorescence intensity (a.u.)
13,TATACCTCTAATTTGTCTGATCTGTACTGCAGGCCCTACACGGAGTCACCTAGTGCAG,9480 fluorescence intensity (a.u.)
14,GAGCTCTGCAGTTACCGTCTATATATATTACCGTTAGTCACGGAGTCACCTAGTGCAG,10200 fluorescence intensity (a.u.)
15,CAGTAATTGTCACTATCTTATTACACATTATTCTGTCCAGCGGAGTCACCTAGTGCAG,8060 fluorescence intensity (a.u.)
16,ATTCAGTATGCAGCTTGTGCCACCTTCAGGTTCTTGGCTTCGGAGTCACCTAGTGCAG,8050 fluorescence intensity (a.u.)
17,GTGAGTTAGTTTGGTGTGTTCATGTATGTATCAATGCATGCGGAGTCACCTAGTGCAG,8220 fluorescence intensity (a.u.)
18,CATCGGCTGACATCGACGTCGGCTCTTTGTTGATCATCATCGGAGTCACCTAGTGCAG,8090 fluorescence intensity (a.u.)
19,TTAGGGATCTGACTGTTACGCACCCATACCATTTCTAACACGGAGTCACCTAGTGCAG,8200 fluorescence intensity (a.u.)
20,TCATCCTCACTCTCTCTGCACACTGCTTCTCGCTCCCGCTCGGAGTCACCTAGTGCAG,12100 fluorescence intensity (a.u.)
21,CCCCAGCCCCAGCCCCAGCCCGACCACTTGCTCGCCGACGCGGAGTCACCTAGTGCAG,8360 fluorescence intensity (a.u.)
22,AGTCAATGTGAACTTATTCCTTTCTTTCTCTTTTTTTTTTCGGAGTCACCTAGTGCAG,8150 fluorescence intensity (a.u.)
23,ACTACGAGTTTTTCTTGTTGAATGTGTCATCCACGTTGTTCGGAGTCACCTAGTGCAG,9510 fluorescence intensity (a.u.)

# Quoted from the listing:
# Value for ATGATGTCGGGCTCCACCCGTGGGTCTGCTACTGCCGCTCCGGAGTCACCTAGTGCAG under binding signal: 8450 fluorescence intensity (a.u.)
# Value for GCTCATGATCTCAATCCTCGTCTGTTTTTTCTCACGAAATCGGAGTCACCTAGTGCAG under binding signal: 10700 fluorescence intensity (a.u.)
